Measured values reported in PMC11922746, “SPO11 dimers are sufficient to catalyse DNA double-strand breaks in vitro” (Nature, 2024).
No constants are given. Whether binding was seen depends on the method and setting. Where a sequence is shown, tags or fusion partners need not be part of it. One block for each binder: values may come before it.

Columns and labels:
[1] = biological target: T1, MBP-tagged Mus musculus SPO11 (Mus musculus, UniProt Q9WTK8 1-396); assay: condition: 4 µM loaded; dissociation constant probably higher than 1–5 µM; SEC-MALS; 4 µM MBP–SPO11 following amylose affinity purification; Superdex 200 increase 10/300 GL; 25 mM HEPES-NaOH pH 7.5, 500 mM NaCl, 10% glycerol, 5 mM EDTA, 2 mM DTT; dimer to monomers; both purified
T1 construct: SPO11, Mus musculus; expected molecular mass of MBP–SPO11 87.4 kDa; active-site tyrosines Y137 and Y138; also called MBP–SPO11; mouse SPO11; source: baculovirus-infected Sf9 insect cells, purified (amylose, Superdex 200, cation exchange); for the complex co-expressed with TOP6BL and purified (Ni-NTA, amylose, Superdex 200); not shown: MBP, N-terminal, kept
T1 sequence (looked up): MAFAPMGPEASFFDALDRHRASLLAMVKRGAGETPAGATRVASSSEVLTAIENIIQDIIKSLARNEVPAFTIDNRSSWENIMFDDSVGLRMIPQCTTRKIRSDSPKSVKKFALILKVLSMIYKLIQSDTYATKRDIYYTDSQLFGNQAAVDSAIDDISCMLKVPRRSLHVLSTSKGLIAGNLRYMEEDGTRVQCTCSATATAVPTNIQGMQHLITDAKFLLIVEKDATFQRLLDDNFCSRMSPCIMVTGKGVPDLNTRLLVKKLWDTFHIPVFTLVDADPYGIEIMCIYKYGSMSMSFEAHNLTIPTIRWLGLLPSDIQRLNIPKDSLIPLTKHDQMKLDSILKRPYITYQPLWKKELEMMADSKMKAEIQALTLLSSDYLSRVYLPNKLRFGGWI

[2] = biological target: SPO11–TOP6BL complex (MBP–SPO11 with His–Flag-tagged TOP6BL) (Mus musculus) (UniProt Q9WTK8+J3QMY9); assay: SEC-MALS; co-expressed and co-purified MBP–SPO11 and His–Flag TOP6BL complex (Ni-NTA, amylose, Superdex 200); Superdex 200 increase 10/300 GL; 25 mM HEPES-NaOH pH 7.5, 500 mM NaCl, 10% glycerol, 5 mM EDTA, 2 mM DTT; both purified

- binding [1]: no binding
B1: MBP-tagged Mus musculus SPO11 (enzyme, UniProt Q9WTK8 1-396)
chain: T1 sequence (looked up)

- binding [2]: no binding
B2: SPO11–TOP6BL complex (MBP–SPO11 with His–Flag-tagged TOP6BL) (complex, UniProt Q9WTK8 1-396; J3QMY9 1-579)
chain 1: T1 sequence (looked up)
chain 2: MERTALAVCEILRYLIIHWKCEAGTAKGTLLDGQLVISIEALRSKHLPDSLHCIITIASTRSVYGGLNFKKFLQEIQPALPRLSAKLALASEEGGRSQDASGIAPCQVTFEVDENSQSLMTDCLVIKHFLRKIIIVHHKLKFSFSVAVNGTLSAETFGAENEPTLRLDNGVTLVVGFQRYVSKPKLNWSEAHCSRIHPVLGHPAPLFIPDAKADTGLLGELTLTPAAALCPSPKGFSSQLCRISSVSIFLYGPLGLPLLSSDQDQPSTAVFRDTSYFIDWKKYNLFMVPNLDLNLDTQSVLPDVNYKAESPEGNQSQNMNAQGPALLLFLFVDFQSDVPVQQAKIWGLHTLLTAHLSAILSESRSTVQQSIQSAVDQVWQLYHHDAKTQQRLQASLSVAVNSIMSVLTGSTRSSFRKTCLQALEAADTQEFGVKLHRIFYDITQHQFLKHCSCDTEQHLTPEKNISAQNTKDQHKNIAQEFPEESIGQAENKRPKRGSPNHGREESRVLGSARDRSPPKSATRDRELTEVSLTARGSQTQAAHGRAQAAEAASPAGGLEDLWLQEVSNLSEWLNPGHRS
